The values that follow come from US7736899B1, “Cells and method for producing proteins comprising an unconventional amino acid” (priority 1998, dated 2010).

For one series, the system named is strain CU505 (wt valS). Put plainly: Amino acid composition of protein hydrolysate (ninhydrin, Beckman 6300). It is filed as cell-based, E. coli. Particulars: valine limiting.
Series [1] concerns strain β5498 (valS T222P). The description is as above. The series is classed as cell-based, E. coli. The note with it: for Amino acid incorporated into the proteins: valine limiting.
[2] abbreviates: CU505 wt valS + Abu (0.2 mM L-aminobutyrate).
The mark [3] stands for this setting: β5498 valS T222P + Abu (0.2 mM L-aminobutyrate).
Setting [4] is: cultured with 0.2 mM L-aminobutyrate.

In the case of `CC(C)[C@H](N)C(=O)O` [valine], the “Amino acid incorporated into the proteins” value turned out to be 0.83 Leu equivalents in the series on strain CU505 (wt valS) (setting [2]), 0.83 Leu equivalents with strain CU505 (wt valS) (CU505 wt valS − Abu), 0.61 Leu equivalents in series [1] (setting [3]) and 0.79 Leu equivalents in series [1] (β5498 valS T222P − Abu).

For the molecule `CC[C@H](C)[C@H](N)C(=O)O` [isoleucine], the “Amino acid incorporated into the proteins” value (in the series on strain CU505 (wt valS) (setting [2]); in the series with strain CU505 (wt valS) (CU505 wt valS − Abu); in series [1] (setting [3]); in series [1] (β5498 valS T222P − Abu)) was 0.61 Leu equivalents throughout.

L-2-aminobutyrate: the “Amino acid incorporated into the proteins” value amounted to 0 Leu equivalents in the series on strain CU505 (wt valS) (setting [2]), 0 Leu equivalents with strain CU505 (wt valS) (CU505 wt valS − Abu), 0.20 Leu equivalents in series [1] (setting [3]) and 0 Leu equivalents in series [1] (β5498 valS T222P − Abu). In series [1] (setting [4]), the “aminobutyrate residues in the total proteins” value is recorded as “approximately 5 residues for 100 amino acids”. Further, the “proportion of the amount of valine replaced by aminobutyrate” value in series [1] (setting [4]) is given as “a quarter”.

Take `C[C@H](N)C(=O)O` [Ala]: the “Amino acid incorporated into the proteins” value in the series on strain CU505 (wt valS) (setting [2]) was 1.32 Leu equivalents; in the series on strain CU505 (wt valS) (CU505 wt valS − Abu), 1.32 Leu equivalents; in series [1] (setting [3]) it was 1.22 Leu equivalents; in series [1] (β5498 valS T222P − Abu) it was 1.28 Leu equivalents.
